From patent publication US20120010177A1, “MicroRNA Modulators and Method for Identifying And Using The Same” (The Wistar Institute / North Carolina State University, priority 2008, published 2012)
The name of at least one read-out is uncertain.

These compounds were tested on miR-21 (assay: High throughput primary miR-21 FLuc reporter assay (concentration-response)). Details: HeLa Luc-miR-21 reporter, 48-hour incubation, four parameter logistic fit.
Type: cell-based, human
Protocol: Primary miR-21 Assay. The primary miR-21 FLuc reporter assay is carried out with HeLa cells expressing the Luc-miR-21 reporter using a 48-hour incubation time. Active compounds that increase the luciferase response are identified based upon inhibition of miR-21.
SAR. The concentration-response data for the entire high throughput screen is plotted and modeled by a four parameter logistic fit and SAR analysis is performed according to conventional approaches (Iglese, et al. (2006) Proc. Natl. Acad. Sci. USA […]:11473-8). In brief, Class 1.1 and 1.2 are full curves containing upper and lower asymptotes with efficacy ≧80% and <80%, respectively. Class 2.1 and 2.2 are incomplete curves having only one asymptote with efficacy ≧80% and <80%, respectively. Class 3 curves show activity at only the highest concentration or are poorly fit. […] For SAR analysis, compounds associated with Class 1 and 2.1 curves are clustered using LEADSCOPE® fingerprints. […] Compounds sharing a common scaffold form a series. Candidate series and singletons are chosen for follow up studies. For each lead or series, an appropriate library design method (e.g., point substitution library or matrix library) is selected. Typically, precursors are synthesized and a library of 15-25 compounds is produced for analysis in the above-described assays.

Row | Structure (SMILES) | Curve Class
1 | O=C(N/N=C/c1ccc2cccnc2c1)c1nc(O)c2ccccc2n1 [Compound 224] | −2.2
2 | CCS(=O)(=O)n1nc(-c2ccccc2)nc1NCc1ccco1 [Compound 41] | −2.2
3 | Nc1ccccc1C(=O)N/N=C1\CCC\C1=C(\O)C(F)(F)F [Compound 198] | −2.1
4 | O=C(c1ccc([N+](=O)[O-])cc1)n1nc(-c2ccccc2)nc1NCc1ccccc1 [Compound 34] | −2.2
5 | Cc1ccc(-c2nc3ncccn3c2Nc2ccc3c(c2)OCCO3)o1 [Compound 242] | −2.2
6 | Cc1ccc(Nc2c(-c3ccc(C)o3)nc3cnccn23)cc1 [Compound 244] | −2.2
7 | CCC(C)NC(=O)CSc1ccc(Cl)cc1 (stereo not shown) [Compound 162] | −2.2
8 | CC(=O)Nc1ccc(NC(=O)COc2ccc(Cl)cc2Cl)cc1 [Compound 175] | −2.2
9 | Cc1ccc(-c2nsc(SCC(=O)Nc3ccc4c(c3)OCO4)n2)cc1 [Compound 161] | −2.2
10 | O=C(N/N=C1\CC2C=CCC12)c1cccs1 (stereo not shown) [Compound 221] | −2.2
11 | CCCC(=O)N(CCN1CCOCC1)c1nc2cc(C)c(C)cc2s1.Cl [Compound 120] | −2.2
12 | O=C(N/N=C1\CC2C=CCC12)c1ccco1 (stereo not shown) [Compound 199] | −2.2
13 | Cc1cc(Cl)c2oc(C(=O)N[C@H]3CC[C@H](O)CC3)c(C)c2c1 [Compound 80] | −2.2
14 | COc1cc(-c2nc3cnccn3c2Nc2ccc(C(C)C)cc2)ccc1O [Compound 241] | −1.2
15 | Cc1cc(C)c2c(N)c(C(=O)Nc3ccccc3F)sc2n1 [Compound 81] | −1.2
16 | COc1ccc(N/C(S)=N/NC(=O)c2cccs2)cc1 [Compound 208] | −2.2
17 | CCOc1ccccc1-n1nnc(-c2nc(-c3ccccc3)no2)c1N [Compound 23] | −2.2
18 | CCC(=O)Oc1ccc(NC(=O)CSCc2ccccc2)cc1 [Compound 146] | −2.2
19 | Cc1ccc(C)c(-n2nnc(-c3nc(-c4ccc(Cl)cc4)no3)c2N)c1 [Compound 55] | −1.2
20 | Cc1ccc(C)c(-n2nnc(-c3nc(-c4ccc(Cl)cc4)no3)c2N)c1 [Compound 21] | −1.2

Row | Structure (SMILES) | Curve Class
21 | CC(=O)c1cnc2nc(SCc3ccccc3)nn2c1C [Compound 43] | −2.2
22 | O=C(CCc1ccccc1)n1nc(-c2ccco2)nc1SCc1ccccc1 [Compound 53] | −2.2
23 | NC(=O)COC(=O)c1ccc2noc(-c3ccccc3)c2c1 [Compound 182] | −2.2
24 | COc1ccc(C(Nc2ccccn2)c2c(NC(=O)c3ccco3)sc(C)c2C)cc1OC (stereo not shown) [Compound 115] | −2.2
25 | Cc1c(Cl)cccc1Nc1nc(N)nc(CSC(=S)N2CCOCC2)n1 [Compound 68] | −2.2
26 | C/C(=N\NC(=O)c1ccccc1)c1ccc(NC(=O)C(F)(F)F)cc1 [Compound 197] | −2.2
27 | COc1ccc(NC(=O)c2ccccc2NC(=O)c2ccccc2C(=O)O)c(OC)c1 [Compound 104] | −2.2
28 | Cc1ccc(-c2cc(C(=O)NCCc3ccccc3)c3c(-c4ccc(C)cc4)[nH]nc3c2)cc1 [Compound 110] | −2.2
29 | COc1ccc(C2=NN(C(C)=O)C(c3cccs3)C2)cc1OC (stereo not shown) [Compound 212] | −2.2
30 | COc1ccc(Nc2nc(N)nc(CSc3nccc(C)n3)n2)cc1 [Compound 66] | −2.2
31 | O=C(Nc1ccc2nc3n(c(=O)c2c1)CCCCC3)c1ccccc1Cl [Compound 112] | −2.4
32 | O=C(CSc1nnc(-c2ccc(O)cc2)o1)Nc1ccccc1Br [Compound 123] | −1.2
33 | Cc1cccc(NC(=O)C2Cc3ccccc3O/C2=N/O)c1 (stereo not shown) [Compound 114] | −2.2
34 | O=C(N/N=C/c1ccc(OC(=O)c2cccs2)cc1)c1cccc(F)c1 [Compound 235] | −2.2
35 | Nc1c(C(=O)Nc2ccc(S(=O)(=O)N3CCCC3)cc2)sc2nc3cc4c(cc3cc12)CCC4 [Compound 85] | −2.2
36 | Cn1nnc2cc(C(=O)Nc3ccccc3F)ccc21 [Compound 108] | −2.2
37 | CCCNC(=O)COCc1cc(-c2ccc(F)cc2)on1 [Compound 170] | −2.2
38 | Cc1ccc(CNc2nc(-c3ccco3)nn2S(C)(=O)=O)cc1 [Compound 29] | −2.2
39 | C/C(CC(=O)NCc1ccccc1Cl)=N\NC(=O)c1ccccn1 [Compound 213] | −2.2
40 | Nc1c(-c2nc(-c3cccs3)no2)nnn1-c1cccc(Cl)c1 [Compound 25] | −2.2

Row | Structure (SMILES) | Curve Class
41 | O=C(CSc1nnc(-c2ccccn2)o1)Nc1ccccc1C(F)(F)F [Compound 142] | −2.2
42 | COc1ccc(-c2nnc(SCC(=O)Nc3cccc(C)c3)s2)cc1 [Compound 151] | −2.2
43 | CCCC(=O)Nc1ccc(NC(=O)C23CC4CC(CC(C4)C2)C3)cn1 [Compound 99] | −2.2
44 | CC1=NN(C(=O)c2ccoc2C)C(O)(C(F)(F)F)C1 (stereo not shown) [Compound 217] | −2.2
45 | CC1C2CC(C/C2=N\NC(=O)c2cccs2)C1(C)C (stereo not shown) [Compound 201] | −2.2
46 | Cc1ccccc1Nc1nc(N)nc(CSc2nnc3ccccn23)n1 [Compound 64] | −2.2
47 | Brc1ccc(CSc2nnc3ccccn23)cc1 [Compound 51] | −2.2
48 | COc1ccc(NC(=O)C/C(C)=N/NC(=O)c2ccco2)c([N+](=O)[O-])c1 [Compound 237] | −2.2
49 | COCC1CCN(C(=O)c2oc3c(F)cccc3c2C)C1 (stereo not shown) [Compound 76] | −2.2
50 | N#CC1Cc2cc3c(cc2N=C1SCC(=O)N1CCOCC1)OCO3 (stereo not shown) [Compound 121] | −1.2
51 | C=CCNC(=S)NNC(=O)COc1ccc2cc(Br)ccc2c1 [Compound 181] | −2.2
52 | CN1CCN(NC(=O)Nc2ccc(Br)cc2Cl)CC1 [Compound 116] | −2.4
53 | O=C(Cc1cccs1)N/N=C/C=C/c1ccccc1[N+](=O)[O-] [Compound 204] | −2.2
54 | O=C(Nc1ccc(-c2nc3ccccc3[nH]2)cc1)c1ccc2c(c1)OCO2 [Compound 91] | −2.2
55 | C/C(=N\N1C(=O)c2ccccc2NC1c1ccccc1)c1ccccc1O (stereo not shown) [Compound 192] | −1.2
56 | C/C(=N\NC(=O)c1ccco1)c1ccc(C(=O)O)s1 [Compound 196] | −2.2
57 | Cc1ccc(-n2nnc(-c3nc(-c4cccs4)no3)c2N)cc1C [Compound 14] | −2.2
58 | Cc1ccc2c(C)c(C(=O)N(C)C(C)c3ccncn3)oc2c1C (stereo not shown) [Compound 77] | −2.2
59 | O=C(CCc1ccccc1)Nc1cccnc1Cl [Compound 96] | −2.2

Same assay, conditions: Table 12 singletons; concentration-response curve class

Row | Structure (SMILES) | Curve Class
60 | CCOC(=O)c1s/c(=N/C(=O)c2c(F)cccc2F)n(C)c1C [Compound 293] | −2.2
61 | Nc1c(-c2ccccc2)n[nH]c1-c1ccccc1 [Compound 262] | −2.2
62 | CC(=O)N1CCN(c2nc3c(F)cc(F)cc3s2)CC1 [Compound 254] | −2.2
63 | O=C(CN1c2ccc(Br)cc2-c2ccccc2[S+]1(=O)[O-])N1CCCCC1 [Compound 345] | −2.2
64 | CCN(CC)C(=O)CS/C(=N/C#N)Nc1ccccc1F [Compound 306] | −2.2
65 | CCN(CC)CCCNC(=O)CCC(=O)Nc1ccc2nc(N3CCC(C)CC3)cc(C)c2c1 [Compound 341] | −2.2
66 | CCC(C)NC(=O)CCCn1c(=O)c2cccn2c2ccccc21 (stereo not shown) [Compound 251] | −2.2
67 | COc1ccc(-c2csc(NC(=O)COC(=O)c3ccc(Br)o3)n2)cc1 [Compound 259] | −2.2
68 | COC(=O)c1ccc(Cn2nnc3sc4c(c3c2=O)CCCC4)cc1 [Compound 273] | −2.2
69 | CCc1cccc(CC)c1N(COC)C(=O)Cn1c(CC)nc2ccccc21 [Compound 307] | −2.2
70 | O=C1C(Nc2ccccc2)=C2CCCC=C2N1c1ccccc1 [Compound 267] | −1.2
71 | CC(=O)O[C@H]1C[C@@]2(C)[C@@H](C[C@@H](O)[C@H]3[C@@]4(C)CC[C@@H](O)[C@@H](C)C4CC[C@@]32C)/C1=C(\CCC=C(C)C)C(=O)[O-].[Na+] (stereo partly shown) [Compound 312] | −2.2
72 | O=C(NC1CCCCCC1)C1CCCN(c2ncccn2)C1 (stereo not shown) [Compound 339] | −2.2
73 | CSc1ccc(-c2cccc([N+](=O)[O-])c2)nn1 [Compound 277] | −2.2
74 | CC(C)N1C(=O)CN(C2CCCCCC2)C(=O)C1c1ccccc1F (stereo not shown) [Compound 301] | −2.2
75 | O=C(NC12CC3CC(CC(C3)C1)C2)N1CCN(C(=O)c2ccco2)CC1 [Compound 317] | −2.2
76 | CCn1c(=O)c(C(=O)Nc2ccccc2S(N)(=O)=O)c(O)c2ccccc21 [Compound 309] | −2.2
77 | Br.Cn1c(=N)n(CC(=O)C(C)(C)C)c2ccccc21 [Compound 338] | −2.2
78 | NC(=O)COC(=O)c1ccc2noc(-c3ccccc3)c2c1 [Compound 274] | −2.2
79 | CCCNC(=O)OCc1cccnc1Sc1ccc(C)cc1 [Compound 319] | −2.2
80 | O=c1n(Cc2ccccc2)nc2n1-c1ccccc1SC2 [Compound 321] | −2.2
81 | CCc1ccc(N2C(=O)Cc3c2nc(N)c(C#N)c3N)cc1 [Compound 318] | −2.2
82 | COc1ccc(-c2nn3c(-c4ccccc4)nnc3s2)cc1OC [Compound 310] | −2.2
